Measurements as given in patent US12535491B2, “Vaccine comprising protein-targeted (PT) extracellular DNA isolated from bacterial matrix” (priority 2018, dated 2026).

B1: APOH_HUMAN (protein, UniProt P02749 20-345, looked up)
Beta-2-glycoprotein 1: GRTCPKPDDLPFSTVVPLKTFYEPGEEITYSCKPGYVSRGGMRKFICPLTGLWPINTLKCTPRVCPFAGILENGAVRYTTFEYPNTISFSCNTGFYLNGADSAKCTEEGKWSPELPVCAPIICPPPSIPTFATLRVYKPSAGNNSLYRDTAVFECLPQHAMFGNDTITCTTHGNWTKLPECREVKCPFPSRPDNGFVNYPAKPTLYYKDKATFGCHDGYSLDGPEEIECTKLGNWSAMPSCKASCKVPVKKATVVYQGERVKIQEKFKNGMLHGDKVSFFCKNKEKKCSYTEDAQCIDGTIEVPKCFKEHSSLAFWKTDASDVKPC
B2: CERU_HUMAN (protein, UniProt P00450 20-1065, looked up)
Ceruloplasmin: KEKHYYIGIIETTWDYASDHGEKKLISVDTEHSNIYLQNGPDRIGRLYKKALYLQYTDETFRTTIEKPVWLGFLGPIIKAETGDKVYVHLKNLASRPYTFHSHGITYYKEHEGAIYPDNTTDFQRADDKVYPGEQYTYMLLATEEQSPGEGDGNCVTRIYHSHIDAPKDIASGLIGPLIICKKDSLDKEKEKHIDREFVVMFSVVDENFSWYLEDNIKTYCSEPEKVDKDNEDFQESNRMYSVNGYTFGSLPGLSMCAEDRVKWYLFGMGNEVDVHAAFFHGQALTNKNYRIDTINLFPATLFDAYMVAQNPGEWMLSCQNLNHLKAGLQAFFQVQECNKSSSKDNIRGKHVRHYYIAAEEIIWNYAPSGIDIFTKENLTAPGSDSAVFFEQGTTRIGGSYKKLVYREYTDASFTNRKERGPEEEHLGILGPVIWAEVGDTIRVTFHNKGAYPLSIEPIGVRFNKNNEGTYYSPNYNPQSRSVPPSASHVAPTETFTYEWTVPKEVGPTNADPVCLAKMYYSAVEPTKDIFTGLIGPMKICKKGSLHANGRQKDVDKEFYLFPTVFDENESLLLEDNIRMFTTAPDQVDKEDEDFQESNKMHSMNGFMYGNQPGLTMCKGDSVVWYLFSAGNEADVHGIYFSGNTYLWRGERRDTANLFPQTSLTLHMWPDTEGTFNVECLTTDHYTGGMKQKYTVNQCRRQSEDSTFYLGERTYYIAAVEVEWDYSPQREWEKELHHLQEQNVSNAFLDKGEFYIGSKYKKVVYRQYTDSTFRVPVERKAEEEHLGILGPQLHADVGDKVKIIFKNMATRPYSIHAHGVQTESSTVTPTLPGETLTYVWKIPERSGAGTEDSACIPWAYYSTVDQVKDLYSGLIGPLIVCRRPYLKVFNPRRKLEFALLFLVFDENESWYLDDNIKTYSDHPEKVNKDDEEFIESNKMHAINGRMFGNLQGLTMHVGDEVNWYLMGMGNEIDLHTVHFHGHSFQYKHRGVYSSDVFDIFPGTYQTLEMFPRTPGIWLLHCHVTDHIHAGMETTYTVLQNEDTKSG
B3: IGHG2_HUMAN (protein, UniProt P01859 1-395, looked up)
Immunoglobulin heavy constant …: ASTKGPSVFPLAPCSRSTSESTAALGCLVKDYFPEPVTVSWNSGALTSGVHTFPAVLQSSGLYSLSSVVTVPSSNFGTQTYTCNVDHKPSNTKVDKTVERKCCVECPPCPAPPVAGPSVFLFPPKPKDTLMISRTPEVTCVVVDVSHEDPEVQFNWYVDGVEVHNAKTKPREEQFNSTFRVVSVLTVVHQDWLNGKEYKCKVSNKGLPAPIEKTISKTKGQPREPQVYTLPPSREEMTKNQVSLTCLVKGFYPSDISVEWESNGQPENNYKTTPPMLDSDGSFFLYSKLTVDKSRWQQGNVFSCSVMHEALHNHYTQKSLSLSPELQLEESCAEAQDGELDGLWTTITIFITLFLLSVCYSATITFFKVKWIFSSVVDLKQTIVPDYRNMIRQGA
B4: PZP_HUMAN (protein, UniProt P20742 26-1482, looked up)
Pregnancy zone protein: TEPQYMVLVPSLLHTEAPKKGCVLLSHLNETVTVSASLESGRENRSLFTDLVAEKDLFHCVSFTLPRISASSEVAFLSIQIKGPTQDFRKRNTVLVLNTQSLVFVQTDKPMYKPGQTVRFRVVSVDENFRPRNELIPLIYLENPRRNRIAQWQSLKLEAGINQLSFPLSSEPIQGSYRVVVQTESGGRIQHPFTVEEFVLPKFEVKVQVPKIISIMDEKVNITVCGEYTYGKPVPGLATVSLCRKLSRVLNCDKQEVCEEFSQQLNSNGCITQQVHTKMLQITNTGFEMKLRVEARIREEGTDLEVTANRISEITNIVSKLKFVKVDSHFRQGIPFFAQVLLVDGKGVPIPNKLFFISVNDANYYSNATTNEQGLAQFSINTTSISVNKLFVRVFTVHPNLCFHYSWVAEDHQGAQHTANRVFSLSGSYIHLEPVAGTLPCGHTETITAHYTLNRQAMGELSELSFHYLIMAKGVIVRSGTHTLPVESGDMKGSFALSFPVESDVAPIARMFIFAILPDGEVVGDSEKFEIENCLANKVDLSFSPAQSPPASHAHLQVAAAPQSLCALRAVDQSVLLMKPEAELSVSSVYNLLTVKDLTNFPDNVDQQEEEQGHCPRPFFIHNGAIYVPLSSNEADIYSFLKGMGLKVFTNSKIRKPKSCSVIPSVSAGAVGQGYYGAGLGVVERPYVPQLGTYNVIPLNNEQSSGPVPETVRSYFPETWIWELVAVNSSGVAEVGVTVPDTITEWKAGAFCLSEDAGLGISSTASLRAFQPFFVELTMPYSVIRGEVFTLKATVLNYLPKCIRVSVQLKASPAFLASQNTKGEESYCICGNERQTLSWTVTPKTLGNVNFSVSAEAMQSLELCGNEVVEVPEIKRKDTVIKTLLVEAEGIEQEKTFSSMTCASGANVSEQLSLKLPSNVVKESARASFSVLGDILGSAMQNIQNLLQMPYGCGEQNMVLFAPNIYVLNYLNETQQLTQEIKAKAVGYLITGYQRQLNYKHQDGSYSTFGERYGRNQGNTWLTAFVLKTFAQARSYIFIDEAHITQSLTWLSQMQKDNGCFRSSGSLLNNAIKGGVEDEATLSAYVTIALLEIPLPVTNPIVRNALFCLESAWNVAKEGTHGSHVYTKALLAYAFSLLGKQNQNREILNSLDKEAVKEDNLVHWERPQRPKAPVGHLYQTQAPSAEVEMTSYVLLAYLTAQPAPTSGDLTSATNIVKWIMKQQNAQGGFSSTQDTVVALHALSRYGAATFTRTEKTAQVTVQDSQTFSTNFQVDNNNLLLLQQISLPELPGEYVITVTGERCVYLQTSMKYNILPEKEDSPFALKVQTVPQTCDGHKAHTSFQISLTISYTGNRPASNMVIVDVKMVSGFIPLKPTVKMLERSSSVSRTEVSNNHVLIYVEQVTNQTLSFSFMVLQDIPVGDLKPAIVKVYDYYETDESVVAEYIAPCSTDTEHGNV
B5: VTDB_HUMAN (protein, UniProt P02774 17-474, looked up)
Vitamin D-binding protein: LERGRDYEKNKVCKEFSHLGKEDFTSLSLVLYSRKFPSGTFEQVSQLVKEVVSLTEACCAEGADPDCYDTRTSALSAKSCESNSPFPVHPGTAECCTKEGLERKLCMAALKHQPQEFPTYVEPTNDEICEAFRKDPKEYANQFMWEYSTNYGQAPLSLLVSYTKSYLSMVGSCCTSASPTVCFLKERLQLKHLSLLTTLSNRVCSQYAAYGEKKSRLSNLIKLAQKVPTADLEDVLPLAEDITNILSKCCESASEDCMAKELPEHTVKLCDNLSTKNSKFEDCCQEKTAMDVFVCTYFMPAAQLPELPDVELPTNKDVCDPGNTKVMDKYTFELSRRTHLPEVFLSKVLEPTLKSLGECCDVEDSTTCFNAKGPLLKKELSSFIDKGQELCADYSENTFTEYKKKLAERLKAKLPDATPTELAKLVNKHSDFASNCCSINSPPLYCDSEIDAELKNIL
B6: ITIH2_HUMAN (+1) (protein, UniProt P19823 55-702, looked up)
Inter-alpha-trypsin inhibitor …: SLPGESEEMMEEVDQVTLYSYKVQSTITSRMATTMIQSKVVNNSPQPQNVVFDVQIPKGAFISNFSMTVDGKTFRSSIKEKTVGRALYAQARAKGKTAGLVRSSALDMENFRTEVNVLPGAKVQFELHYQEVKWRKLGSYEHRIYLQPGRLAKHLEVDVWVIEPQGLRFLHVPDTFEGHFDGVPVISKGQQKAHVSFKPTVAQQRICPNCRETAVDGELVVLYDVKREEKAGELEVFNGYFVHFFAPDNLDPIPKNILFVIDVSGSMWGVKMKQTVEAMKTILDDLRAEDHFSVIDFNQNIRTWRNDLISATKTQVADAKRYIEKIQPSGGTNINEALLRAIFILNEANNLGLLDPNSVSLIILVSDGDPTVGELKLSKIQKNVKENIQDNISLFSLGMGFDVDYDFLKRLSNENHGIAQRIYGNQDTSSQLKKFYNQVSTPLLRNVQFNYPHTSVTDVTQNNFHNYFGGSEIVVAGKFDPAKLDQIESVITATSANTQLVLETLAQMDDLQDFLSKDKHADPDFTRKLWAYLTINQLLAERSLAPTAAAKRRITRSILQMSLDHHIVTPLTSLVIENEAGDERMLADAPPQDPSCCSGALYYGSKVVPDSTPSWANPSPTPVISMLAQGSQVLESTPPPHVMRVEND
B7: IGHG3_HUMAN (protein, UniProt P01860 1-446, looked up)
Immunoglobulin heavy constant …: ASTKGPSVFPLAPCSRSTSGGTAALGCLVKDYFPEPVTVSWNSGALTSGVHTFPAVLQSSGLYSLSSVVTVPSSSLGTQTYTCNVNHKPSNTKVDKRVELKTPLGDTTHTCPRCPEPKSCDTPPPCPRCPEPKSCDTPPPCPRCPEPKSCDTPPPCPRCPAPELLGGPSVFLFPPKPKDTLMISRTPEVTCVVVDVSHEDPEVQFKWYVDGVEVHNAKTKPREEQYNSTFRVVSVLTVLHQDWLNGKEYKCKVSNKALPAPIEKTISKTKGQPREPQVYTLPPSREEMTKNQVSLTCLVKGFYPSDIAVEWESSGQPENNYNTTPPMLDSDGSFFLYSKLTVDKSRWQQGNIFSCSVMHEALHNRFTQKSLSLSPELQLEESCAEAQDGELDGLWTTITIFITLFLLSVCYSATVTFFKVKWIFSSVVDLKQTIIPDYRNMIGQGA

Tested on: heat-resistant proteins of human plasma
Experiment: LC/MS of heat-resistant proteins in plasma after exposure to proteinase K and boiling
Details: LC/MS; healthy human blood plasma after incubation for 30 minutes with Proteinase K, following heating for 100° C. for 5 minutes (probe_2)

Molecule | N-plasma + pK
B1 | 22
B2 | 40
B3 | 31
B4 | 11
B5 | 32
B6 | 24
B7 | 25
